Results published in patent US20220046917A1, “ATTRACTANT BLEND COMPOSITIONS, DEVICES AND METHODS FOR ATTRACTING FEMALE MICE” (priority 2020, published 2022).
Some entries repeat one wording, which the source may state once for all of them.

Experiment: GC-MS analysis of headspace odorants emanating from urine- and feces-soiled bedding of mice
Set-up: species or system Mus musculus
Conditions: for Mean abundance (%) Female: headspace odorants of soiled bedding of female mice; for Mean abundance (%) Female / Mean abundance (%) Male: GC-MS; for Mean abundance (%) Male: headspace odorants of soiled bedding of male mice; for change in abundance in headspace odorants of male mice: males progressing from 30 to 33 days of age

SMILES: C=C1CC/C=C(\C)CC[C@@H]2[C@@H]1CC2(C)C (relative stereo) [trans-caryophyllene]
- Mean abundance (%) Female: 0.21%
- Mean abundance (%) Male: 0.3%

SMILES: CCCCCCO [1-hexanol]
- Mean abundance (%) Female: 0.15%
- change in abundance in headspace odorants of male mice: markedly increased in abundance

SMILES: C=CC(O)CCCCC (centres unmarked) [1-octen-3-ol]
- Mean abundance (%) Female: 1.68%
- Mean abundance (%) Male: 2.46%

SMILES: CCCCCO [1-pentanol]
- Mean abundance (%) Female: 0.27%
- Mean abundance (%) Male: 0.35%

SMILES: CSCSSC [2,3,5-trithiahexane]
- Mean abundance (%) Female: 0.12%
- Mean abundance (%) Male: 8.91%

SMILES: CC(=O)C1=NCCC1 [2-acetyl-pyrroline]
- Mean abundance (%) Female: 0.12%
- Mean abundance (%) Male: 1.03%

SMILES: CCCCCC(C)=O [2-heptanone]
- Mean abundance (%) Female: 32.83%
- Mean abundance (%) Male: 43.6%

SMILES: CCCC(C)=O [2-pentanone]
- Mean abundance (%) Female: 0.18%
- Mean abundance (%) Male: 0.4%

SMILES: CCC(C)C1=NCCS1 (centres unmarked) [2-sec-butyl-4,5-dihydrothiazole, reference compound]
- Mean abundance (%) Female: 0.0%
- Mean abundance (%) Male: 5.56%
- change in abundance in headspace odorants of male mice: markedly increased in abundance

SMILES: CCCCCCCCCC(C)=O [2-undecanone]
- Mean abundance (%) Female: 0.21%
- Mean abundance (%) Male: 0.13%

SMILES: CCC1OC2(C)C=CCC1O2 (stereo not drawn) [3,4-dehydro-exo-7-ethyl-5-methyl-6,8-dioxabicyclo[3.2.1]octane, reference compound]
- Mean abundance (%) Female: 2.84%
- Mean abundance (%) Male: 7.4%
- change in abundance in headspace odorants of male mice: increase markedly

SMILES: CC(C)=CCO [3-methyl-2-buten-1-ol]
- Mean abundance (%) Female: 0.20%
- Mean abundance (%) Male: 0.42%

SMILES: CCC(C)C(C)=O (centres unmarked) [3-methyl-2-pentanone]
- Mean abundance (%) Female: 0.01%
- Mean abundance (%) Male: 0.33%
- change in abundance in headspace odorants of male mice: markedly increased in abundance

SMILES: C=C(C)CCO [3-methyl-3-buten-1-ol]
- Mean abundance (%) Female: 6.96%
- Mean abundance (%) Male: 4.6%

SMILES: CC(C)CC(=O)O [3-methylbutyric acid]
- Mean abundance (%) Female: 3.30%
- Mean abundance (%) Male: 0.0%

SMILES: CCCC(=O)CCC [4-heptanone]
- Mean abundance (%) Female: 1.52%
- Mean abundance (%) Male: 0.0%

SMILES: CCC(=O)CCC(C)C [6-methyl-3-heptanone]
- Mean abundance (%) Female: 6.39%
- Mean abundance (%) Male: 4.44%

SMILES: CCC/C=C/C(C)=O [E3-2-heptenone]
- Mean abundance (%) Female: 2.3%
- Mean abundance (%) Male: 2.15%

SMILES: C/C=C/CCC(C)=O [E5-2-heptenone]
- Mean abundance (%) Female: 5.6%
- Mean abundance (%) Male: 4.06%

SMILES: CC(=O)c1ccccc1 [acetophenone]
- Mean abundance (%) Female: 1.64%
- Mean abundance (%) Male: 3.61%

SMILES: CCCC(=O)O [butyric acid]
- Mean abundance (%) Female: 29.74%
- Mean abundance (%) Male: 0.0%

SMILES: CSSSC [dimethyl trisulfide]
- Mean abundance (%) Female: 0.46%
- Mean abundance (%) Male: 1.2%

SMILES: CC(=O)CC/C=C(\C)CCC=C(C)C [geranylacetone]
- Mean abundance (%) Female: 0.24%
- Mean abundance (%) Male: 0.69%

SMILES: C/C1=C\CC/C(C)=C/CC(C)(C)/C=C/C1 [α-humulene]
- Mean abundance (%) Female: 0.73%
- Mean abundance (%) Male: 0.74%

SMILES: C=CC(=C)CC/C=C(\C)CCC=C(C)C [β-farnesene]
- Mean abundance (%) Female: 0.39%
- Mean abundance (%) Male: 1.37%
